No constants are given. Whether binding was seen depends on the method and setting. In cells and extracts the contact can be indirect. These calls come from enrichment with a bait or labelling near it, and not all partners need be listed.
Target: Trophoblast cell surface protein 2 (human) (UniProt P09758)
Test: affinity purification with mass spectrometry; anti-Trop2 IgG (CST #90540) on Dynabeads, protein sample of 293T cells overexpressing Trop2, 10 min at room temperature, washed with PBST three times, eluted with glycine pH 2.8; trypsin digest, TripleTOF 5600+, MaxQuant, peptide and protein FDR <=0.01

Amino acid sequences for entries named in this document (tags omitted). Residues count along the entry.
UniProt P09758, residues 27-323: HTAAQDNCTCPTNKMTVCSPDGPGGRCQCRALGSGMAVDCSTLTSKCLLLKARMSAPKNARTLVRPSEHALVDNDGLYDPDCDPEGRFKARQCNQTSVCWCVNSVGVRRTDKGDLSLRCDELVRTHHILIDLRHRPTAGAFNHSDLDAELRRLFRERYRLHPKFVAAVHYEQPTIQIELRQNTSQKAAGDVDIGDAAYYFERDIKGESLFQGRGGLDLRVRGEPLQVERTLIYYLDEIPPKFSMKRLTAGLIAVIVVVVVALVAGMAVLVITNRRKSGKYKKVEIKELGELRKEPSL
UniProt Q9ULV4: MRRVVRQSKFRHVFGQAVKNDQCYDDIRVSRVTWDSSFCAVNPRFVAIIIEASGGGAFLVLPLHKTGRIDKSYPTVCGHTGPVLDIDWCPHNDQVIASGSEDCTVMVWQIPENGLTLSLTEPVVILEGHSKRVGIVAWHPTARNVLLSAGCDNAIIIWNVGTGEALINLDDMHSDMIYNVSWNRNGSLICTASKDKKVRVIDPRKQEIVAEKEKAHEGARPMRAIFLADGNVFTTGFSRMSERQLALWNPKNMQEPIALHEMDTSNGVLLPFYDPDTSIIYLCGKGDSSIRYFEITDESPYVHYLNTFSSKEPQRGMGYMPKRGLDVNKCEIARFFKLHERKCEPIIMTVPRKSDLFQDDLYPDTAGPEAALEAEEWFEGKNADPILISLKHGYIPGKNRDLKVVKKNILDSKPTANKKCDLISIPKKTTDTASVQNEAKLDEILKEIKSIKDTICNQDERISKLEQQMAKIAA

Molecule | binding
coronin-like actin-binding protein 1C (from UniProt Q9ULV4 1-474) | binds
CPD (protein, UniProt O75976 32-1380) AHIKKAEATTTTTSAGAEAAEGQFDRYYHEEELESALREAAAAGLPGLARLFSIGRSVEGRPLWVLRLTAGLGSLIPEGDAGPDAAGPDAAGPLLPGRPQVKLVGNMHGDETVSRQVLIYLARELAAGYRRGDPRLVRLLNTTDVYLLPSLNPDGFERAREGDCGFGDGGPSGASGRDNSRGRDLNRSFPDQFSTGEPPALDEVPEVRALIEWIRRNKFVLSGNLHGGSVVASYPFDDSPEHKATGIYSKTSDDEVFKYLAKAYASNHPIMKTGEPHCPGDEDETFKDGITNGAHWYDVEGGMQDYNYVWANCFEITLELSCCKYPPASQLRQEWENNRESLITLIEKVHIGVKGFVKDSITGSGLENATISVAGINHNITTGRFGDFYRLLVPGTYNLTVVLTGYMPLTVTNVVVKEGPATEVDFSLRPTVTSVIPDTTEAVSTASTVAIPNILSGTSSSYQPIQPKDFHHHHFPDMEIFLRRFANEYPNITRLYSLGKSVESRELYVMEISDNPGVHEPGEPEFKYIGNMHGNEVVGRELLLNLIEYLCKNFGTDPEVTDLVHNTRIHLMPSMNPDGYEKSQEGDSISVIGRNNSNNFDLNRNFPDQFVQITDPTQPETIAVMSWMKSYPFVLSANLHGGSLVVNYPFDDDEQGLATYSKSPDDAVFQQIALSYSKENSQMFQGRPCKNMYPNEYFPHGITNGASWYNVPGGMQDWNYLQTNCFEVTIELGCVKYPLEKELPNFWEQNRRSLIQFMKQVHQGVRGFVLDATDGRGILNATISVAEINHPVTTYKTGDYWRLLVPGTYKITASARGYNPVTKNVTVKSEGAIQVNFTLVRSSTDSNNESKKGKGASSSTNDASDPTTKEFETLIKDLSAENGLESLMLRSSSNLALALYRYHSYKDLSEFLRGLVMNYPHITNLTNLGQSTEYRHIWSLEISNKPNVSEPEEPKIRFVAGIHGNAPVGTELLLALAEFLCLNYKKNPAVTQLVDRTRIVIVPSLNPDGRERAQEKDCTSKIGQTNARGKDLDTDFTNNASQPETKAIIENLIQKQDFSLSVALDGGSMLVTYPYDKPVQTVENKETLKHLASLYANNHPSMHMGQPSCPNKSDENIPGGVMRGAEWHSHLGSMKDYSVTYGHCPEITVYTSCCYFPSAARLPSLWADNKRSLLSMLVEVHKGVHGFVKDKTGKPISKAVIVLNEGIKVQTKEGGYFHVLLAPGVHNIIAIADGYQQQHSQVFVHHDAASSVVIVFDTDNRIFGLPRELVVTVSGATMSALILTACIIWCICSIKSNRHKDGFHRLRQHHDEYEDEIRMMSTGSKKSLLSHEFQDETDTEEETLYSSKH | binds
PLOD2 (protein, UniProt O00469 26-737) ADSEKPSSIPTDKLLVITVATKESDGFHRFMQSAKYFNYTVKVLGQGEEWRGGDGINSIGGGQKVRLMKEVMEHYADQDDLVVMFTECFDVIFAGGPEEVLKKFQKANHKVVFAADGILWPDKRLADKYPVVHIGKRYLNSGGFIGYAPYVNRIVQQWNLQDNDDDQLFYTKVYIDPLKREAINITLDHKCKIFQTLNGAVDEVVLKFENGKARAKNTFYETLPVAINGNGPTKILLNYFGNYVPNSWTQDNGCTLCEFDTVDLSAVDVHPNVSIGVFIEQPTPFLPRFLDILLTLDYPKEALKLFIHNKEVYHEKDIKVFFDKAKHEIKTIKIVGPEENLSQAEARNMGMDFCRQDEKCDYYFSVDADVVLTNPRTLKILIEQNRKIIAPLVTRHGKLWSNFWGALSPDGYYARSEDYVDIVQGNRVGVWNVPYMANVYLIKGKTLRSEMNERNYFVRDKLDPDMALCRNAREMGVFMYISNRHEFGRLLSTANYNTSHYNNDLWQIFENPVDWKEKYINRDYSKIFTENIVEQPCPDVFWFPIFSEKACDELVEEMEHYGKWSGGKHHDSRISGGYENVPTDDIHMKQVDLENVWLHFIREFIAPVTLKVFAGYYTKGFALLNFVVKYSPERQRSLRPHHDASTFTINIALNNVGEDFQGGGCKFLRYNCSIESPRKGWSFMHPGRLTHLHEGLPVKNGTRYIAVSFIDP | binds

From publication PMC8223509
